Data as given in PubChem BioAssay AID743454 (Peter MacCallum Cancer Centre, 2014).
Shown is an unselected part of about 18,000 reagents tested. 450 of them (2.5%) were called active. 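Single biological run; no consistent viability z cut-off exists, so the class columns, not z-scores, define the calls.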

- Purpose: 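Knock-downs lowering viability or raising caspase 3/7 activity in vorinostat-treated resistant cells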 (primary screen)
- Cell system: human HCT116-VR colon cancer cells, selected for vorinostat resistance
- Reagents: siRNA pool against human genes, 40 nM siRNA pool
- Duration: vorinostat for 24 h, read-out about 72 h after transfection
- Conditions: vorinostat at 2.5 µM final
- Measurement: 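Cell viability by CellTiter-Fluor and caspase 3/7 activity by luminescence, each scaled to mock wells per plate, duplicates averaged, then robust z-scored over all plates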
- Scale: viability robust z-score: higher = more viable cells than screen typical; caspase robust z-score: higher = more caspase 3/7 activity than screen typical
- Hit rule: 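Hits are knock-downs in viability class RV1/RV2 or caspase class CA1/CA2, excluding ones that killed cells in the no-drug cell-count arm; hits then retested with single siRNAs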

Gene	viability hit class	caspase hit class	viability robust z-score	caspase robust z-score	activity call
ZFAND6 (GeneID 54469)	no change	no change	0.59	-0.51	inactive
ADHFE1 (GeneID 137872)	no change	no change	-0.14	-0.06	inactive
CCL2 (GeneID 6347)	no change	no change	-0.4	-0.52	inactive
CUL5 (GeneID 8065)	no change	no change	1.58	1.17	inactive
ASB8 (GeneID 140461)	no change	no change	0.26	0.72	inactive
LPCAT2 (GeneID 54947)	no change	no change	1.09	-1.03	inactive
ATP13A2 (GeneID 23400)	no change	no change	0.72	-0.15	inactive
RBM41 (GeneID 55285)	no change	no change	0.22	-0.29	inactive
LIMCH1 (GeneID 22998)	no change	no change	-0.45	-0.27	inactive
CDY2B (GeneID 203611)	no change	no change	-2.58	2.23	inactive
TNFRSF10A (GeneID 8797)	no change	no change	0.02	-0.84	inactive
FBXO7 (GeneID 25793)	no change	no change	-0.9	2.52	inactive
CCL14 (GeneID 6358)	no change	no change	1	-0.62	inactive
OTUB2 (GeneID 78990)	no change	CA2 (caspase activation)	-0.06	5.19	active
DDB1 (GeneID 1642)	no change	no change	-0.29	-0.47	inactive
ULBP3 (GeneID 79465)	no change	no change	-1.32	-0.54	inactive
ELP5 (GeneID 23587)	no change	no change	-0.76	-0.6	inactive
SRSF4 (GeneID 6429)	no change	no change	0.46	-0.86	inactive
ENTPD1 (GeneID 953)	no change	no change	-0.57	2.38	inactive
YPEL1 (GeneID 29799)	no change	no change	-0.96	-0.32	inactive
TRAPPC11 (GeneID 60684)	no change	no change	-0.57	1.24	inactive
KDELR3 (GeneID 11015)	no change	no change	-0.28	2.66	inactive
NELFB (GeneID 25920)	no change	no change	0.53	0.03	inactive
ZNF599 (GeneID 148103)	no change	no change	1.39	-0.6	inactive
INTS5 (GeneID 80789)	no change	no change	-0.96	2.3	inactive
IGDCC3 (GeneID 9543)	no change	no change	-1.84	2.02	inactive
MLNR (GeneID 2862)	no change	no change	-0.16	0.44	inactive
ATG7 (GeneID 10533)	no change	no change	0.2	-0.84	inactive
UBB (GeneID 7314)	no change	no change	-4.74	-1.04	inactive
ARHGEF1 (GeneID 9138)	no change	no change	0.58	0.94	inactive
SURF1 (GeneID 6834)	no change	no change	-0.82	1.49	inactive
EXT1 (GeneID 2131)	no change	no change	0.76	-0.17	inactive
KRTAP12-2 (GeneID 353323)	no change	no change	0.37	3	inactive
DPH5 (GeneID 51611)	no change	no change	-0.06	0.4	inactive
CASP1 (GeneID 834)	no change	no change	0.68	-0.36	inactive
RAD51AP1 (GeneID 10635)	no change	no change	-0.82	1.1	inactive
GNL3 (GeneID 26354)	no change	no change	-1.42	0.26	inactive
RPS19 (GeneID 6223)	no change	no change	-3.7	-1.84	inactive
MAP6D1 (GeneID 79929)	no change	no change	-0.12	-0.09	inactive
PNCK (GeneID 139728)	no change	no change	0.26	2.17	inactive
CCDC190 (GeneID 339512)	no change	no change	0.03	-0.91	inactive
ARFIP2 (GeneID 23647)	no change	no change	-0.45	0.31	inactive
DSG2 (GeneID 1829)	no change	no change	-0.25	-0.4	inactive
RIPOR2 (GeneID 9750)	no change	no change	-0.44	1.52	inactive
DGAT1 (GeneID 8694)	no change	no change	1.12	1.29	inactive
RHOH (GeneID 399)	no change	no change	0.9	-0.62	inactive
MICOS10 (GeneID 440574)	no change	no change	-1.38	-0.67	inactive
ZNF596 (GeneID 169270)	no change	no change	0.98	-0.48	inactive
AMIGO2 (GeneID 347902)	no change	no change	0.48	-0.92	inactive
DNPEP (GeneID 23549)	no change	no change	-0.57	0.33	inactive
DCXR (GeneID 51181)	no change	no change	-0.64	1.07	inactive
NABP2 (GeneID 79035)	no change	no change	-1.17	-0.09	inactive
SPTB (GeneID 6710)	no change	no change	0.96	-0.05	inactive
C1QL1 (GeneID 10882)	no change	no change	0.68	-1.36	inactive
SRI (GeneID 6717)	no change	no change	0.08	2.12	inactive
LDLRAD4 (GeneID 753)	no change	no change	0.74	-1.04	inactive
TRPS1 (GeneID 7227)	no change	no change	1.62	0.9	inactive
NUDT16 (GeneID 131870)	no change	no change	-0.16	0.64	inactive
XCR1 (GeneID 2829)	no change	no change	-2.08	0.32	inactive
LGALS9C (GeneID 654346)	no change	no change	-1.12	-0.94	inactive
BEND6 (GeneID 221336)	no change	CA1 (caspase activation)	-0.48	5.53	active
SYT14 (GeneID 255928)	no change	no change	0.72	0.18	inactive
DAGLB (GeneID 221955)	no change	no change	0.52	-0.7	inactive
AIFM1 (GeneID 9131)	no change	no change	-1.6	-0.6	inactive
RPL18P4 (GeneID 392979)	no change	no change	-1.7	-1.12	inactive
ENDOU (GeneID 8909)	no change	CA2 (caspase activation)	-1.68	7.75	active
TTC33 (GeneID 23548)	RV2 (reduced viability)	no change	-3.2	-1.43	active
H1-4 (GeneID 3008)	no change	no change	-0.85	0.22	inactive
SENP1 (GeneID 29843)	no change	no change	0.25	-0.29	inactive
PELP1 (GeneID 27043)	no change	no change	-0.5	0.48	inactive
PPP1R18 (GeneID 170954)	no change	no change	0.67	0.63	inactive
SLC25A5 (GeneID 292)	no change	no change	0.84	-0.31	inactive
FEN1 (GeneID 2237)	no change	no change	-0.35	-0.29	inactive

Reagents listed so far called active, once more:
Gene	viability hit class	caspase hit class	viability robust z-score	caspase robust z-score	activity call
OTUB2 (GeneID 78990)	no change	CA2 (caspase activation)	-0.06	5.19	active
BEND6 (GeneID 221336)	no change	CA1 (caspase activation)	-0.48	5.53	active
ENDOU (GeneID 8909)	no change	CA2 (caspase activation)	-1.68	7.75	active
TTC33 (GeneID 23548)	RV2 (reduced viability)	no change	-3.2	-1.43	active
